We go through 1 compound from US20260183350A1, “ANTIBIOTIC-RESISTANT BACTERIA” (priority 2022, published 2026).

Assay [1] concerns NDM-1 Enterobacter cloacae. Nature of the assay: Individual metabolite inhibition assay. Format: cell-based. Conditions: at average and high concentrations (Table 1); LB pH 6.5, 16 hours anaerobic. The method, then:
(§1) New Delhi Metallo-β-lactamase 1 (NDM-1) Escherichia coli, NDM-1 Klebsiella pneumoniae, and NDM-1 Enterobacter cloacae were isolated from patients with intestinal CRE colonisation from the Imperial College Healthcare NHS Trust via rectal swab (REC ref. 19/LO/0112). The species were assigned by matrix assisted laser desorption ionization-time of flight (MALDI-TOF) mass spectrometry and later confirmed with 16S rRNA gene sequencing. CRE status was determined using X-pert Carba-R PCR detection (Cepheid, Sunnyvale, CA, USA), (Otter, J. A. et al. Detecting carbapenemase-producing Enterobacterales (CPE): an evaluation of an enhanced CPE infection control and screening programme in acute care. J Antimicrob Chemother 75, 2670-2676 (2020)).
(§2) Each metabolite was tested individually in an inhibition assay against each CRE isolate. Each metabolite was tested at three concentrations: the low, average, and high concentrations that were measured in healthy faeces (from Table 1). LB was supplemented with each metabolite (at the three different concentrations) and compared to a no metabolite control. […] Overnight cultures of each CRE isolate were inoculated at 10^3 CFU/ml. Cultures were incubated anaerobically for 16 hours at 37° C. Growth was measured at OD600 after 16 hours of incubation. […]

For assay [2], the system named is NDM-1 Klebsiella pneumoniae. Nature of the assay: Individual metabolite inhibition assay. In kind it is cell-based. Conditions: at average and high concentrations (Table 1); LB pH 6.5, 16 hours anaerobic. The method, then:
as §1, §2

With `CC(C)CC(=O)O` [isovalerate], the “E. cloacae growth (OD600) with individual metabolite” value in assay [1] is reported as “inhibited”. Also, the “K. pneumoniae growth (OD600) with individual metabolite” value in assay [2] is listed as “inhibited”.
